{"source": "patent US12570697B2", "about": "“Cyclic peptide useful in the treatment of cancer” (Syntherix Limited, priority 2019, dated 2026)", "assay": "imaging of peptide distribution within the cell (Example 1, FIG. 4)", "type": "cell-based"}
{"substance": "Cys-[Pro-Arg-Gly-Pro-Arg-Pro-DAC-Trp-Trp-Arg-Arg-Trp-Tp-Arg-Arg-Trp-Trp] [HILRa-025-Dac]", "values": [{"measurement": "distribution of DAC-peptide within the cell", "setting": "6 μM in the absence of Nanocin-Pro or 3 μM in the presence of Nanocin-Pro", "result": "throughout the nucleus and cytoplasm"}]}
{"substance": "HILRa-025: a cyclic peptide composed of a ‘warhead’ and ‘backbone’ as described in WO/2016/020437 (PRGPRPVWWRRWWRR; cyclic; Hilra-025 Synthesized)", "values": [{"measurement": "location of auto-fluorescent signal", "setting": "above concentrations of 10 μM, data not shown", "result": "predominantly located in the nucleus"}]}
